Values from PubChem BioAssay AID743121 (NCATS, 2013)
This is a random part of about 26,000 reagents. 167 of them (0.63%) count as active. 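Calls are per gene from RSA p-values that are not deposited; an individual active-marked siRNA can sensitise only weakly.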 Reagents against one gene are numbered here. Further read-outs or replicates are left out here. Reagent sequences are not shown.

- Aim: 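Partners whose loss is lethal together with topoisomerase I blockade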 (primary screen)
- System: MDA-MB-231 cells, a human breast cancer line
- Knock-down reagent: single siRNA against human genes, 20 nM siRNA (0.8 pmol per well)
- Time to read-out: 120 h (drug added 48 h after transfection, read 72 h later)
- Challenge: camptothecin 20 nM (about EC30) for 72 h; vehicle 0.1% DMSO in parallel plates
- Detection: 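Cell viability by ATP luminescence (CellTiter-Glo) as % of non-targeting siRNA wells, and the log2 ratio of viability without drug over viability with camptothecin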
- Scale: log2 vehicle/camptothecin viability: higher = stronger sensitisation to camptothecin; viability with camptothecin: higher = more viable cells
- Units: viability with camptothecin in % of control
- Rule for the call: 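Active genes have an RSA gene-level p-value below 0.001, computed from the ratios of their separate siRNAs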

{"gene symbol": "SEMA4D", "reagent": 1, "log2 vehicle/camptothecin viability": -0.0714, "viability with camptothecin": 80.2, "activity call": "inactive"}
{"gene symbol": "SEMA4D", "reagent": 2, "log2 vehicle/camptothecin viability": -0.368, "viability with camptothecin": 84.6, "activity call": "inactive"}
{"gene symbol": "SEMA4D", "reagent": 3, "log2 vehicle/camptothecin viability": 0.023, "viability with camptothecin": 103, "activity call": "inactive"}
{"gene symbol": "SEMA4D", "reagent": 4, "log2 vehicle/camptothecin viability": -0.042, "viability with camptothecin": 58.4, "activity call": "inactive"}
{"gene symbol": "TRPV5", "reagent": 1, "log2 vehicle/camptothecin viability": -0.257, "viability with camptothecin": 54.7, "activity call": "inactive"}
{"gene symbol": "TRPV5", "reagent": 2, "log2 vehicle/camptothecin viability": -0.407, "viability with camptothecin": 52.4, "activity call": "inactive"}
{"gene symbol": "TRPV5", "reagent": 3, "log2 vehicle/camptothecin viability": 0.0878, "viability with camptothecin": 95.2, "activity call": "inactive"}
{"gene symbol": "TRPV5", "reagent": 4, "log2 vehicle/camptothecin viability": -0.22, "viability with camptothecin": 98.3, "activity call": "inactive"}
{"gene symbol": "SGMS2", "reagent": 1, "log2 vehicle/camptothecin viability": 0.151, "viability with camptothecin": 85.6, "activity call": "inactive"}
{"gene symbol": "SGMS2", "reagent": 2, "log2 vehicle/camptothecin viability": -0.129, "viability with camptothecin": 116, "activity call": "inactive"}
{"gene symbol": "SGMS2", "reagent": 3, "log2 vehicle/camptothecin viability": -0.329, "viability with camptothecin": 69, "activity call": "inactive"}
{"gene symbol": "ISYNA1", "reagent": 1, "log2 vehicle/camptothecin viability": -0.378, "viability with camptothecin": 37.8, "activity call": "inactive"}
{"gene symbol": "ISYNA1", "reagent": 2, "log2 vehicle/camptothecin viability": 0.408, "viability with camptothecin": 56.5, "activity call": "inactive"}
{"gene symbol": "ISYNA1", "reagent": 3, "log2 vehicle/camptothecin viability": -0.194, "viability with camptothecin": 61.3, "activity call": "inactive"}
{"gene symbol": "ISYNA1", "reagent": 4, "log2 vehicle/camptothecin viability": -0.272, "viability with camptothecin": 73.5, "activity call": "inactive"}
{"gene symbol": "TFDP2", "reagent": 1, "log2 vehicle/camptothecin viability": -0.0507, "viability with camptothecin": 74.8, "activity call": "inactive"}
{"gene symbol": "TFDP2", "reagent": 2, "log2 vehicle/camptothecin viability": -0.278, "viability with camptothecin": 93.7, "activity call": "inactive"}
{"gene symbol": "TFDP2", "reagent": 3, "log2 vehicle/camptothecin viability": -0.678, "viability with camptothecin": 25.1, "activity call": "inactive"}
{"gene symbol": "TFDP2", "reagent": 4, "log2 vehicle/camptothecin viability": -0.441, "viability with camptothecin": 58.3, "activity call": "inactive"}
{"gene symbol": "HTR2C", "reagent": 1, "log2 vehicle/camptothecin viability": -0.753, "viability with camptothecin": 88.9, "activity call": "inactive"}
{"gene symbol": "HTR2C", "reagent": 2, "log2 vehicle/camptothecin viability": -0.242, "viability with camptothecin": 109, "activity call": "inactive"}
{"gene symbol": "HTR2C", "reagent": 3, "log2 vehicle/camptothecin viability": -0.178, "viability with camptothecin": 79.2, "activity call": "inactive"}
{"gene symbol": "HTR2C", "reagent": 4, "log2 vehicle/camptothecin viability": 0.161, "viability with camptothecin": 72.2, "activity call": "inactive"}

4 entries from above, sorted by “log2 vehicle/camptothecin viability”, high to low.
{"gene symbol": "SEMA4D", "reagent": 3, "log2 vehicle/camptothecin viability": 0.023, "viability with camptothecin": 103, "activity call": "inactive"}
{"gene symbol": "SEMA4D", "reagent": 4, "log2 vehicle/camptothecin viability": -0.042, "viability with camptothecin": 58.4, "activity call": "inactive"}
{"gene symbol": "TRPV5", "reagent": 1, "log2 vehicle/camptothecin viability": -0.257, "viability with camptothecin": 54.7, "activity call": "inactive"}
{"gene symbol": "SEMA4D", "reagent": 2, "log2 vehicle/camptothecin viability": -0.368, "viability with camptothecin": 84.6, "activity call": "inactive"}

More reagents follow.
{"gene symbol": "IL13RA2", "reagent": 1, "log2 vehicle/camptothecin viability": -0.0406, "viability with camptothecin": 114, "activity call": "inactive"}
{"gene symbol": "IL13RA2", "reagent": 2, "log2 vehicle/camptothecin viability": -0.0212, "viability with camptothecin": 73.1, "activity call": "inactive"}
{"gene symbol": "IL13RA2", "reagent": 3, "log2 vehicle/camptothecin viability": 0.166, "viability with camptothecin": 68.2, "activity call": "inactive"}
{"gene symbol": "DUS3L", "reagent": 1, "log2 vehicle/camptothecin viability": 0.116, "viability with camptothecin": 35.1, "activity call": "inactive"}
{"gene symbol": "DUS3L", "reagent": 2, "log2 vehicle/camptothecin viability": -0.316, "viability with camptothecin": 43.4, "activity call": "inactive"}
{"gene symbol": "DUS3L", "reagent": 3, "log2 vehicle/camptothecin viability": -0.404, "viability with camptothecin": 90.8, "activity call": "inactive"}
{"gene symbol": "DUS3L", "reagent": 4, "log2 vehicle/camptothecin viability": -0.161, "viability with camptothecin": 103, "activity call": "inactive"}
{"gene symbol": "SLC5A5", "reagent": 1, "log2 vehicle/camptothecin viability": -0.583, "viability with camptothecin": 85.3, "activity call": "inactive"}
{"gene symbol": "SLC5A5", "reagent": 2, "log2 vehicle/camptothecin viability": -0.368, "viability with camptothecin": 106, "activity call": "inactive"}
{"gene symbol": "SLC5A5", "reagent": 3, "log2 vehicle/camptothecin viability": -0.0298, "viability with camptothecin": 73.9, "activity call": "inactive"}
{"gene symbol": "FBXO40", "reagent": 1, "log2 vehicle/camptothecin viability": 0.0948, "viability with camptothecin": 90, "activity call": "inactive"}
{"gene symbol": "FBXO40", "reagent": 2, "log2 vehicle/camptothecin viability": -0.126, "viability with camptothecin": 85.6, "activity call": "inactive"}
{"gene symbol": "FBXO40", "reagent": 3, "log2 vehicle/camptothecin viability": 0.0765, "viability with camptothecin": 89.2, "activity call": "inactive"}
{"gene symbol": "FBXO40", "reagent": 4, "log2 vehicle/camptothecin viability": 0.407, "viability with camptothecin": 34.8, "activity call": "inactive"}
{"gene symbol": "TMUB2", "reagent": 1, "log2 vehicle/camptothecin viability": -0.346, "viability with camptothecin": 109, "activity call": "inactive"}
{"gene symbol": "TMUB2", "reagent": 2, "log2 vehicle/camptothecin viability": -0.193, "viability with camptothecin": 102, "activity call": "inactive"}
{"gene symbol": "TMUB2", "reagent": 3, "log2 vehicle/camptothecin viability": 0.101, "viability with camptothecin": 76.2, "activity call": "inactive"}
{"gene symbol": "TMUB2", "reagent": 4, "log2 vehicle/camptothecin viability": -0.0626, "viability with camptothecin": 95, "activity call": "inactive"}
{"gene symbol": "EPHB2", "reagent": 1, "log2 vehicle/camptothecin viability": 0.084, "viability with camptothecin": 113, "activity call": "inactive"}
{"gene symbol": "EPHB2", "reagent": 2, "log2 vehicle/camptothecin viability": -0.668, "viability with camptothecin": 28.7, "activity call": "inactive"}
{"gene symbol": "EPHB2", "reagent": 3, "log2 vehicle/camptothecin viability": 0.814, "viability with camptothecin": 13.1, "activity call": "inactive"}
{"gene symbol": "EPHB2", "reagent": 4, "log2 vehicle/camptothecin viability": -0.0138, "viability with camptothecin": 50, "activity call": "inactive"}
